The list shows a part of the results. Most entries show no effect beyond the scatter of the controls.
compound: CN[C@@H]1C[C@H]2O[C@@](C)([C@@H]1OC)n1c3ccccc3c3c4c(c5c6ccccc6n2c5c31)C(=O)NC4 [staurosporine]; test: log2 fold change of tryptic peptide abundance, ligand vs vehicle (limited proteolysis) (log2 ratio); higher = more trypsin-susceptible (destabilized); conditions: ligand concentration: 20 uM; sample: K562 cleared lysate; digestion: 4 min, 22 C (HT-PELSA RT4min, Orbitrap Astral)

By UniProt entry, the sequences of proteins in these tests, tags left out. Where a name states a change or a piece, a line headed by the entry shows the natural chain unless it says otherwise.
UniProt Q9H9A5, whole entry: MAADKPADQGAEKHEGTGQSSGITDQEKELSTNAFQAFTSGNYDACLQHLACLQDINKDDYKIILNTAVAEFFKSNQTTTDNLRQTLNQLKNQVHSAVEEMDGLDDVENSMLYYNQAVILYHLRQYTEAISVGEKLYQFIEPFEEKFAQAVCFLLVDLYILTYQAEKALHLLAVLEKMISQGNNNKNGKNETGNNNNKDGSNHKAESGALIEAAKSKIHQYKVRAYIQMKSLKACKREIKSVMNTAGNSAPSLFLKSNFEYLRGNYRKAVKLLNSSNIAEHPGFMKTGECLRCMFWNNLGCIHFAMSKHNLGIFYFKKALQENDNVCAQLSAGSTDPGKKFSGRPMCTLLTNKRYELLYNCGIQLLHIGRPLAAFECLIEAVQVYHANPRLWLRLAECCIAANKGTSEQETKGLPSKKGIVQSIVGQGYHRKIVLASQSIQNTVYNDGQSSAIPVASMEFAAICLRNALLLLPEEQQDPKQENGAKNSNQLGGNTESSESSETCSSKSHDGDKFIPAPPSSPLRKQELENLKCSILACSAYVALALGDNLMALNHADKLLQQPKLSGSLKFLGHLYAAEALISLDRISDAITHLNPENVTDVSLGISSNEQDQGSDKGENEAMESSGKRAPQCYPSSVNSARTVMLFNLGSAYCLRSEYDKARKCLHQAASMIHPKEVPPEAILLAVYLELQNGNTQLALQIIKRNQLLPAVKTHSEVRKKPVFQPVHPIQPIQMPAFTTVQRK
UniProt Q9H6F5: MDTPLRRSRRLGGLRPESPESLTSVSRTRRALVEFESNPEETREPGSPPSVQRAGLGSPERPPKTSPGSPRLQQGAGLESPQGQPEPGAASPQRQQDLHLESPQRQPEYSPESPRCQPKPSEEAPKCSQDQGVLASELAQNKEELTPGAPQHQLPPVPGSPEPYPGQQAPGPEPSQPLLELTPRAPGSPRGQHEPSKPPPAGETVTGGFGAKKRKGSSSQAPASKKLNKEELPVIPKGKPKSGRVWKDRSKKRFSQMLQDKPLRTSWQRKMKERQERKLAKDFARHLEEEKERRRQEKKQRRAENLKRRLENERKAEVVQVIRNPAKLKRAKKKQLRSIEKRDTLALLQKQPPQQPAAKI
UniProt Q9HCS4: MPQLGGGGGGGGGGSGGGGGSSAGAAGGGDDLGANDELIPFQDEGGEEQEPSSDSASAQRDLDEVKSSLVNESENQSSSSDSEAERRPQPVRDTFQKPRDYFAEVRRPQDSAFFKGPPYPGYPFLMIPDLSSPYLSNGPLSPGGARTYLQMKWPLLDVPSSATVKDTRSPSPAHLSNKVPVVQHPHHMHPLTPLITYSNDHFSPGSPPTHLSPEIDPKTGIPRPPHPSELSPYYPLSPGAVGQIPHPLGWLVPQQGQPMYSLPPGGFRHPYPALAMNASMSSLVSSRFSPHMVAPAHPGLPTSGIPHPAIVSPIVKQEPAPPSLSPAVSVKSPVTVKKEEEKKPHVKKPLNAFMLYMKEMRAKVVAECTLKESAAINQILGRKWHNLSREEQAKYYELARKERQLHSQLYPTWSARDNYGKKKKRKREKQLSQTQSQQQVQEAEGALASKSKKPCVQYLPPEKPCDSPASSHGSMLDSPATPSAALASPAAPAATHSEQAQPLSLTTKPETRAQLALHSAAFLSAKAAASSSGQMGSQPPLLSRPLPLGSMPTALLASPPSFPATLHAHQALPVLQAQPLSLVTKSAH
UniProt Q9NQC8: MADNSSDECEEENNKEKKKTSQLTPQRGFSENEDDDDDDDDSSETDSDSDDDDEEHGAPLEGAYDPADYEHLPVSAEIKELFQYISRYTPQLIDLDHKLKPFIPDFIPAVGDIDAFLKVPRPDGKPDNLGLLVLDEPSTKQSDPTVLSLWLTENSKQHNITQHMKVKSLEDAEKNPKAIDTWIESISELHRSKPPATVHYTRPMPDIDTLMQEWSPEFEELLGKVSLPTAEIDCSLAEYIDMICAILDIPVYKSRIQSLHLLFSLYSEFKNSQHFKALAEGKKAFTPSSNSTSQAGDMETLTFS
UniProt Q9HCD5: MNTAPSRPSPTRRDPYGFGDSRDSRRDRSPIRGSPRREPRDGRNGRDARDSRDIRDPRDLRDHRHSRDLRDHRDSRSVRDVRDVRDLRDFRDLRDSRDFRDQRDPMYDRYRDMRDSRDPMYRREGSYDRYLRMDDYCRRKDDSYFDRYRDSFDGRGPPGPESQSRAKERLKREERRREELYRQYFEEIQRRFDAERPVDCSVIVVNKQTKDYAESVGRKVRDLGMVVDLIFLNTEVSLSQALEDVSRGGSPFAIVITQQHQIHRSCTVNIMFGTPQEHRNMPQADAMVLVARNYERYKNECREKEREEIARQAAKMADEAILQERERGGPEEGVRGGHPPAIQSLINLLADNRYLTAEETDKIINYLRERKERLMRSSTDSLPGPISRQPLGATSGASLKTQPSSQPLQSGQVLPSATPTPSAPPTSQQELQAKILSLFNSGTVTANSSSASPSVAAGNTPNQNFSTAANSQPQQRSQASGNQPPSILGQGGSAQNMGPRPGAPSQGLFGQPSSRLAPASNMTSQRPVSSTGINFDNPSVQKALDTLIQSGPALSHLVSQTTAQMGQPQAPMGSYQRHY
UniProt Q9HAW4: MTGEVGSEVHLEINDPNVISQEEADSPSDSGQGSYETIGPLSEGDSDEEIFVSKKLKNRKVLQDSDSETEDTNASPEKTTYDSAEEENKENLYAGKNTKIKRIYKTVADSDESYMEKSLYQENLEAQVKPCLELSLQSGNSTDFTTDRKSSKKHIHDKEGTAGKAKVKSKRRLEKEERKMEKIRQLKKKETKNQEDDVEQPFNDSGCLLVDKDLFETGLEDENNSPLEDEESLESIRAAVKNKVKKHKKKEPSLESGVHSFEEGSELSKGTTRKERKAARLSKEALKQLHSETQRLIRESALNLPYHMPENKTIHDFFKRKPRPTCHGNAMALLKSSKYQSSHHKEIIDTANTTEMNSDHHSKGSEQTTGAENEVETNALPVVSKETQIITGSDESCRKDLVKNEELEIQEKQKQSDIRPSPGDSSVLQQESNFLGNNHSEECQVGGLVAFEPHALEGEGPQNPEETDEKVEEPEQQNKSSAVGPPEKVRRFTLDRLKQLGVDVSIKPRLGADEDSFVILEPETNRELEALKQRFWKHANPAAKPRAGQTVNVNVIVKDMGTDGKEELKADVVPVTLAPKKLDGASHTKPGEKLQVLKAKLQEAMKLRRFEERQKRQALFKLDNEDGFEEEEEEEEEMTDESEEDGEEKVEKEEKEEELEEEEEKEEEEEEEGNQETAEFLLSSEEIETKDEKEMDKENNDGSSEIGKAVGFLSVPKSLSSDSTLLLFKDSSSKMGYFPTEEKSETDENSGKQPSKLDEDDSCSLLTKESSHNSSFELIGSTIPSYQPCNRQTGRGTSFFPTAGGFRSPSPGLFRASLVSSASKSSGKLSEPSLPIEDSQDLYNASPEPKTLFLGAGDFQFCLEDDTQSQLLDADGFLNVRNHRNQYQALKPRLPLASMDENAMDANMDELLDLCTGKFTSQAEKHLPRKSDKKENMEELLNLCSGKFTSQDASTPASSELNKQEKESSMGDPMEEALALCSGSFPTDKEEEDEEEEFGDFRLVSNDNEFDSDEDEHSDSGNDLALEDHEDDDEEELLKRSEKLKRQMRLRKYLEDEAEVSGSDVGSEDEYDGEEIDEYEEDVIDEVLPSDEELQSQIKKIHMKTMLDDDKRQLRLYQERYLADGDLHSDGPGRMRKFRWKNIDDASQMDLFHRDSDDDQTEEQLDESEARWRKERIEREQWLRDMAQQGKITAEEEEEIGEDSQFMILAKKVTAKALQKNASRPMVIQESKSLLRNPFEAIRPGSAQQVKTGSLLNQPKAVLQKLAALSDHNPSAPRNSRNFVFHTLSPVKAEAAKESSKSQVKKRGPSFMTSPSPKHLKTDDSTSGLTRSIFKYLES
UniProt Q9H7E2: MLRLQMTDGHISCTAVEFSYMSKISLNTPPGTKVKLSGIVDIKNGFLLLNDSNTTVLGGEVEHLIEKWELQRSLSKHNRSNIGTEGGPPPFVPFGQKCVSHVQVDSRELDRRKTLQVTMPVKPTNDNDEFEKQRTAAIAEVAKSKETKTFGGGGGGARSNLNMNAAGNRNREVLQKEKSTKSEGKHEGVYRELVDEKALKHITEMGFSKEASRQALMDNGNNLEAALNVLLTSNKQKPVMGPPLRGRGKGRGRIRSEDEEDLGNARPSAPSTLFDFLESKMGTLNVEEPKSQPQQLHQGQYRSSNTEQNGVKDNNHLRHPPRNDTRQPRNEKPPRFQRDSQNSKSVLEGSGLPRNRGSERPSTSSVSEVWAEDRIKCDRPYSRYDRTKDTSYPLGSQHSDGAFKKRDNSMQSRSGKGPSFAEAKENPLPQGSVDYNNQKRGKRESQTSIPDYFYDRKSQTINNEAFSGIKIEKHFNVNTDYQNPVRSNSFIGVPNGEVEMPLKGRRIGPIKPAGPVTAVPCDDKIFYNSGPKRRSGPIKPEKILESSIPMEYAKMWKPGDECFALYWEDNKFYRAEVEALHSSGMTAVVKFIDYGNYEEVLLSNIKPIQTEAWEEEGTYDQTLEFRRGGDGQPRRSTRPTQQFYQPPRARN
UniProt Q9H8Y5: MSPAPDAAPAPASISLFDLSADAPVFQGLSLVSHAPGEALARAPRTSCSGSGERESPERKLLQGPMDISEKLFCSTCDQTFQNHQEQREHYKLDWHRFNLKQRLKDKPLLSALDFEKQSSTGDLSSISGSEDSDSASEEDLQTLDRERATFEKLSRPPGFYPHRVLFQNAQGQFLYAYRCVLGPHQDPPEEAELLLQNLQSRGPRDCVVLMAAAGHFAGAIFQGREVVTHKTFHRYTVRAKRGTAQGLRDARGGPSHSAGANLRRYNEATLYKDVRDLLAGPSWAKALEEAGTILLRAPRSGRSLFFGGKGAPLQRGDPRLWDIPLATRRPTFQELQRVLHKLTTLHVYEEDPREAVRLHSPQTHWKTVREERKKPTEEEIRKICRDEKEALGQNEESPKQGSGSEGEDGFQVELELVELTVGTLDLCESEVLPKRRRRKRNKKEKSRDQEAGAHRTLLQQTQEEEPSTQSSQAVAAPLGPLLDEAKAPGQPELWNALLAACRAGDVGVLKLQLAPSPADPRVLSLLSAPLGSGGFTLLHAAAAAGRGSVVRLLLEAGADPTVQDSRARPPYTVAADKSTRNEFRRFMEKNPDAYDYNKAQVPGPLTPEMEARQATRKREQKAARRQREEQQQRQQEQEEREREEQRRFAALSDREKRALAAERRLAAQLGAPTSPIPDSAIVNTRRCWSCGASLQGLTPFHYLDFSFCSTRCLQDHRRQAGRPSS

Target | log2 fold change
CNOT10 (peptide sequence: SNQTTTDNLR, peptide start residue: 75) (UniProt Q9H9A5) | -0.3
CCDC86 (peptide sequence: EPGSPPSVQR, peptide start residue: 44) (UniProt Q9H6F5) | 0.615
UniProt Q9HCS4 (peptide sequence: ESAAINQILGR, peptide start residue: 325) | -0.199
IFT46 (peptide sequence: AIDTWIESISELHR, peptide start residue: 178) (UniProt Q9NQC8) | 0.255
NCOA5 (peptide sequence: YLTAEETDKIINYLR, peptide start residue: 354) (UniProt Q9HCD5) | 0.262
CLSPN (peptide sequence: RGPSFMTSPSPK, peptide start residue: 1307) (UniProt Q9HAW4) | 0.465
TDRD3 (peptide sequence: ENPLPQGSVDYNNQKR, peptide start residue: 425) (UniProt Q9H7E2) | -0.359
ANKZF1 (peptide sequence: KKPTEEEIR, peptide start residue: 374) (UniProt Q9H8Y5) | 0.218

— the supplement of paper PMC12819154, “High-throughput peptide-centric local stability assay extends protein–ligand identification to membrane proteins, tissues and bacteria” (Nature Structural & Molecular Biology, 2025)
